Results are given in words; binding and its absence hold for the method and conditions named.
Biological target: IL-6Rα
Assay: RIA with 32P-labelled H/V-D/A

B1: H/V-D/A mutein (FPΔIL-11 with H182V and D186A) (ligand)
chain: MDYKDDDDKEGRRASVASPDPRAELDSTVLLTRSLLADTRQLAAQLRDKFPADGDHNLDSLPTLAMSAGALGALQLPGVLTRLRADLLSYLRHVQWLRRAGGSSLKTLEPELGTLQARLDRLLRRLQLLMSRLALPQPPPDPPAPPLAPPSSAWGGIRAAHAILGGLVLTLAWAVRGLLLLKTRL
notes: in SPR it was unlabelled; also called H182V+D186A; mutant FPΔIL-11
Question: With B1 as the binder, how does the binding read?
Answer: no binding
